Assay results taken from paper PMC3530471.
No constants are given. Whether binding was seen depends on the method and setting. Binding seen in cells or lysates may run through a third protein. Some entries that bind do so weakly or less than the wild type.

Target: Mcl-1 (human (endogenous in M28)), Q07820
Assay: co-IP; M28 spheroids untreated or treated with bortezomib (100 nM), vorinostat (5 uM) or both for 4 h; lysed in 1% CHAPS, 10 mM HEPES pH 7.4, 150 mM NaCl; Mcl-1 antibody (SC-189) on Sepharose Protein G, 4 C; immunoblot for Noxa and Bim
Conditions: remark: other sources report otherwise

B1: Noxa, Q13794 1-54 (protein)
chain: MPGKKARKNAQPSPARAPAELEVECATQLRRFGDKLNFRQKLLNLISKLFCSGT
- binding: binds
